Data from patent US12325747.
Results are given in words; binding and its absence hold for the method and conditions named. Some binding calls cover weakened binding; strength is not graded here.

Protein sequences, listed by entry. Tags and fused reporters are not part of them. Lines headed by an entry give the natural chain unless they say otherwise; changes in a name come on top.
UniProt Q9NZQ7: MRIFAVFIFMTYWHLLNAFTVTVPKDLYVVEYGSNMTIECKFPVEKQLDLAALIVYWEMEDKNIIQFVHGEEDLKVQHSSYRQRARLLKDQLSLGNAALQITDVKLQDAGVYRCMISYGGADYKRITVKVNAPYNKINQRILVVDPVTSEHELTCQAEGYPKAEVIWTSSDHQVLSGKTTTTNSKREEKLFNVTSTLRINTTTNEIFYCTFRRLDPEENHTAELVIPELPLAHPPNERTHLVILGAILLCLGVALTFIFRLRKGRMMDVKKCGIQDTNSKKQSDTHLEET

B1: ADI-16403 (antibody, human IgG1, V domains shown)
VH: EVQLVESGGGLVQPGGSLRLSCAASGFTFSSYWMSWVRQAPGKGLEWVANIKSDGSEKYYVDSVKGRFTISRDNAKNSLYLQMNSLRAEDTAVYYCARVTYWADYMDVWGKGTTVTVSS
VL: DIQMTQSPSTLSASVGDRVTITCRASQSISSWLAWYQQKPGKAPKLLIYKASSLESGVPSRFSGSGSGTEFTLTISSLQPDDFATYYCQQSGSLPPTFGGGTKVEIK
B2: ADI-16377 (antibody, human IgG1, V domains shown)
VH: QVQLVQSGAEVKKPGASVKVSCKASGYTFTSYYMHWVRQAPGQGLEWMGIINPSGGSTSYAQKFQGRVTMTRDTSTSTVYMELSSLRSEDTAVYYCARDPLMSGTRWLFDIWGQGTMVTVSS
VL: DIQMTQSPSSVSASVGDRVTITCRASQGISSWLAWYQQKPGKAPKLLIYAASSLQSGVPSRFSGSGSGTDFTLTISSLQPEDFATYYCQQVHHFPPTFGGGTKVEIK

Biological target: PD-L1 on CHO-PD-L1 cells (human) (UniProt Q9NZQ7)
Assay: flow cytometry blocking assay 'CHO-PDL1 : PD-1 Alexa 532'; blocked ligand Alexa 532 labelled PD-1; one antibody concentration; both panels

Binder | binding
B1 | binds
B2 | binds
